Source: paper PMC10482896
These are yes or no findings as the source states them, for the method shown. Binding seen in cells or lysates may run through a third protein. Some results given as binding are weak or reduced against the parent protein; the word gives no strength. Sequences can lack the tags named with a protein. Each block holds one binder with its values, some of them ahead of it.

Target: T1, Pcr1-Flag fusion protein (bZIP transcription factor Pcr1) (S. pombe) (UniProt Q09926)
T1 sequence: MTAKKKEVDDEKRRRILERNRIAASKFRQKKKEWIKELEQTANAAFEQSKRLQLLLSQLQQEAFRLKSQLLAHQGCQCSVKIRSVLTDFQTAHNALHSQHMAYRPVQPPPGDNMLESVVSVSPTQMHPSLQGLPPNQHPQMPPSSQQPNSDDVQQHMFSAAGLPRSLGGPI
Assay: co-IP; Pcr1-Flag precipitated with monoclonal anti-Flag on protein G Dynabeads from S. pombe extracts (3 mg, 5 h, 4 °C); cells untreated or treated with 1 mM H2O2 for 10 min, then cross-linked with formaldehyde (1.5%); lysis buffer 20 mM Tris pH 8, 100 mM NaCl, 2 mM EDTA, 0.5% NP-40; blots with anti-HA, anti-Flag and anti-Atf1

binding: binds
B1: Atf1 (bZIP transcription factor) (protein, UniProt P52890 1-566)
chain: MSPSPVNTSTEPASVAAVSNGNATASSTQVPENNQSDSFAPPSNNSQQNQQSSTIAPNGGAGSVANANPADQSDGVTPSFVGSLKLDYEPNPFEHSFGSTASVGQGNPSLNRNPSLSNIPSGVPPAFARTLLPPVSSIASPDILSGAPGIASPLGYPAWSAFTRGTMHNPLSPAIYDATLRPDYLNNPSDASAAARFSSGTGFTPGVNEPFRSLLTPTGAGFPAPSPGTANLLGFHTFDSQFPDQYRFTPRDGKPPVVNGTNGDQSDYFGANAAVHGLCLLSQVPDQQQKLQQPISSENDQAASTTANNLLKQTQQQTFPDSIRPSFTQNTNPQAVTGTMNPQASRTQQQPMYFMGSQQFNGMPSVYGDTVNPADPSLTLRQTTDFSGQNAENGSTNLPQKTSNSDMPTANSMPVKLENGTDYSTSQEPSSNANNQSSPTSSINGKASSESANGTSYSKGSSRRNSKNETDEEKRKSFLERNRQAALKCRQRKKQWLSNLQAKVEFYGNENEILSAQVSALREEIVSLKTLLIAHKDCPVAKSNSAAVATSVIGSGDLAQRINLGY

binding: binds
B2: Flp1-HA fusion protein (Cdc14-like phosphatase Flp1/Clp1) (enzyme, UniProt Q9P7H1 1-537)
chain: MDYQDDGLGEMIEFLEDKLYYTSLSQPPKAELYPHMHFFTIDDELIYNPFYHDFGPLNVSHLIRFAVIVHGIMGKHRQAKKSKAIVLYSSTDTRLRANAACLLACYMVLVQNWPPHLALAPLAQAEPPFLGFRDAGYAVSDYYITIQDCVYGLWRARESSILNIRNIDVHDYETYERVENGDFNWISPKFIAFASPIQAGWNHASTRPKKLPQPFAIVLDYFVANKVKLIVRLNGPLYDKKTFENVGIRHKEMYFEDGTVPELSLVKEFIDLTEEVEEDGVIAVHCKAGLGRTGCLIGAYLIYKHCFTANEVIAYMRIMRPGMVVGPQQHWLHINQVHFRAYFYEKAMGRAIQQATAAEPLATPPRHPLNATNGTSQSNISTPLPEPTPGQPRKVSGHNPPSARRLPSASSVKFNEKLKNASKQSIQNENKASYSSYEDSEIQNDDETRTVGTPTETISVVRLRRSSSQSNIEPNGVRSPTSSPTGSPIRRTSGNRWSSGSSHSKKSAQRSVSMSSLNNTSNGRVAKPKPSKSRLIS
